These are yes or no findings as the source states them, for the method shown. In cells and extracts the contact can be indirect. Some results given as binding are weak or reduced against the parent protein; the word gives no strength. Blank lines part the entries; values can stand above or below the substance they belong to.
Experiments:
[1] = molecular target: G protein-coupled receptor kinase 2 (GRK2), endogenous in HUVECs (human (endogenous in HUVECs)) (UniProt P25098); experiment: co-IP; endogenous co-IP in HUVECs with anti-GRK2 antibodies; n = 3
[2] = molecular target: Myc-tagged activator protein-1 (AP-1) (UniProt P05412); experiment: co-IP; HEK293 cells coexpressing Flag-tagged GRK2 and Myc-tagged AP-1; immunoprecipitation by Flag and, reciprocally, by Myc; n = 3
[3] = molecular target: Flag-tagged G protein-coupled receptor kinase 2 (GRK2) (UniProt P25098); experiment: as above

Amino acid sequences for entries named in this document (tags omitted).
UniProt P25098: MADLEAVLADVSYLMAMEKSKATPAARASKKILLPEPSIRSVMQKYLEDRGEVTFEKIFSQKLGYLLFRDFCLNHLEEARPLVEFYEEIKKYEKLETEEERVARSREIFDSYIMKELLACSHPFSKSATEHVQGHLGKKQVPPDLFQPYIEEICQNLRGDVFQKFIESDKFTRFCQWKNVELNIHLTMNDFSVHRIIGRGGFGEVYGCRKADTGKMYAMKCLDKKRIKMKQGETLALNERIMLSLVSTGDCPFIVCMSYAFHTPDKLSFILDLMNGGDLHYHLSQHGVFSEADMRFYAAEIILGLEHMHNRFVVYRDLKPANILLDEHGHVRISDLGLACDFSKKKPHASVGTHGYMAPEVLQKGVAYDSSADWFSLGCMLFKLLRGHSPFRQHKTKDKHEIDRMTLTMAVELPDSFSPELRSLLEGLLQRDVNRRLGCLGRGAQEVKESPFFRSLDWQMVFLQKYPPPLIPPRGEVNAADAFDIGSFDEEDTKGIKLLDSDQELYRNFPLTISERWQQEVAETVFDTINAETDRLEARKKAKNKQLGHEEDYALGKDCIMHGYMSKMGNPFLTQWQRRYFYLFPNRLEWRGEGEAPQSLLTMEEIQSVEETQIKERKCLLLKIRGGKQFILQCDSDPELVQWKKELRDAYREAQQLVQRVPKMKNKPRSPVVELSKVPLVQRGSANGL
UniProt P05412: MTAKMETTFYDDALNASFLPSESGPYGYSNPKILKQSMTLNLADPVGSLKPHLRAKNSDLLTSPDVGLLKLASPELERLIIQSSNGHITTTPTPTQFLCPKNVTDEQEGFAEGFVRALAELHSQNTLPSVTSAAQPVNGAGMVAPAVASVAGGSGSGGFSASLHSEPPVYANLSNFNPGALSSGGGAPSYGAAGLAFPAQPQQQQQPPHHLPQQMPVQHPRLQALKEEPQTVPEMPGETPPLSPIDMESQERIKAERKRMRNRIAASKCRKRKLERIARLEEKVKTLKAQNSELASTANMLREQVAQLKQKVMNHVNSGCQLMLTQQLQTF

binding [1]: binds
Substance: Activator protein-1 (AP-1), endogenous in HUVECs (from UniProt P05412 1-331)

binding [2]: binds
Substance: Flag-tagged G protein-coupled receptor kinase 2 (GRK2) (from UniProt P25098 1-689) (enzyme)

binding [3]: binds
Substance: Myc-tagged activator protein-1 (AP-1) (from UniProt P05412 1-331)

— publication PMC12412516
